# Measurements: the supplement of paper PMC10338343
# ± gives the standard deviation. This is a selection; strong and weak results do not stand in their true shares. The uncertainty is large for many entries.
# Tested on: MILI (PIWIL2) piRISC loaded with piRNA #2 (26 nt)
# Experiment: pre-steady-state target cleavage rate (min^-1); MIWI and MILI are mouse PIWI proteins and EfPiwi is from a freshwater sponge; tags in brackets are library labels; higher = faster piRNA-guided slicing of the target
# Conditions: guide: piRNA #2 5'p-UUAGGUAACCCAGUAGAUCCAGAGGA; auxiliary factor: 500 nM mouse GTSF1
# In short: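 A burst-and-steady-state fit was used to obtain the pre-steady-state cleavage rate. The input data were sequencing reads of uncleaved targets, normalised to depth and to weakly complementary targets, from a […] transcribed, DNA-blocked target RNA library mixed with 1 nM active affinity-purified piRISC holding one synthetic guide, with or without 500 nM GTSF1 partner protein, in HEPES–potassium acetate buffer at 33 °C for 0–8 or 0–960 min. Three trials were pooled and k3 was capped at 0.0001 min^-1.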
# 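Also: 1 nM active piRISC with 0.1 nM target library at 33 °C single turnover.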
row,Sequence,pre-steady-state target cleavage rate
1,CUUAAGGAGUGCGAUCUACUGGGUUACCUAA,0.00152 ± 0.0092
2,CUUAAGGACUGGAUCUACUGAGGUUACCUAA,0.000386 ± 0.036
3,CUUAAGGAGACCAUCUACUGGCAUACCUAA,0.000265 ± 0.015
4,CUUAAGGACUGGUUCUACUGGGUUAGCUAA,0.00522 ± 0.0073
5,CUUAAGGAGACCAUCUACUGCGUUUCCUAA,0.000253 ± 0.029
6,CUUAAGGAGACCAUCUACAGGGUUACCAAA,0.000812 ± 0.011
7,CUUAAGGAGACCAUCCUACUGGGUUACCUAA,0.000923 ± 0.011
8,CUUAAGGAGUGUAUCUACUGGGUUACCUAA,0.00376 ± 0.0065
9,CUUAAGGAGACCUUCUAUCUGGGUUACCUAA,0.000878 ± 0.013
10,CUUAAGGAGAGGAUCUUCUGGGAUACCUAA,0.000599 ± 0.02
11,CUUAAGGAGACCUUCUACUGGCUUACCUAA,0.000345 ± 0.01
12,CUUAUCCUCUGGAUCUACUGGGUUACCAAA,0.13 ± 0.023
13,CUUAAGGAGAGGAUCUACUGGUUUACCUAA,0.00185 ± 0.0053
14,CUUAAGGAGACCUACUACCGGGUUACCUAA,0.000361 ± 0.028
15,CUUAAGGAGACCUACUAACUGGGUUACCUAA,0.000187 ± 0.026
16,CUUAAGGAGACCAUCUACUGCGUUACGUAA,0.000394 ± 0.013
17,CUUAAGGAGACCUUCGACUGGGUUACCUAA,0.000501 ± 0.017
18,CUUAAGGAGAGGAUCUAAUGGGUUACCUAA,0.00371 ± 0.0051
19,CUUAAGGAGACGAUCUAGUGCGUUACCUAA,0.000763 ± 0.013
20,CUUAAGCUCUGGAUCUACUCGGUUACCUAA,0.0023 ± 0.006
21,CUUAACCUCUGGUUCUACUGGGUUACCAAA,0.134 ± 0.037
22,CUUAAGGAGAGGAUCUACUGGGUACCUAA,0.000511 ± 0.013
23,CUUAAGGAGACCUUACUACUGGGUUACCUAA,0.000552 ± 0.02
24,CUUAAGGAGACCUAGUUCUGGGUUACCAAA,0.000209 ± 0.036

row,Sequence,pre-steady-state target cleavage rate
1,CUUAAGGUCUGGAUCAACUGCGUUACCUAA,0.00384 ± 0.0068
2,CUUAAGGAGACCUUCUACAGGGUUACCAAA,0.000119 ± 0.037
3,CUUAAGGAGACGAUCUACUGGGUAUCCUAA,0.00074 ± 0.0091
4,CUUAAGGAGACCUUCUCACUGGGUUACCUAA,0.000605 ± 0.017
5,CUUAAGGAGUGGAUCUACUUGGUUACCUAA,0.00143 ± 0.0061
6,CUUAAGGAGACGAUCUACUGGGUAACCUUA,0.00045 ± 0.017
7,CUUAAGGUCUGGAUCUAGUGCGUUACCUAA,0.00201 ± 0.004
8,CUUAAGGAGACCUACUAGUGGGUUACCUAA,0.000248 ± 0.029
9,CUUAAGGAGACCAUCUACUGCGGUUACCUAA,0.000826 ± 0.0092
10,CUUAACCUCUGGAUCAUACUGGGUUACCUAA,0.00307 ± 0.0043
11,CUUAAGGAGACCAUGAACUGGGUUACCUAA,0.000117 ± 0.064
12,CUUAACCUCUGGUUCUACUGGGUUACGUAA,0.12 ± 0.043
13,CUUAAGGAGACGAUCUACUGCGUAACCUAA,0.000626 ± 0.0089
14,CUUAAGGAGUGGAUCGUACUGGGUUACCUAA,0.000269 ± 0.025
15,CUUAUCCUCUGGAUCUACUGGGUUAGGAAA,0.00108 ± 0.01
16,CUUAAGGUCUGGAUCUACUGCGUAACCUAA,0.00226 ± 0.0071
17,CUUAAGGAGACGAUCUACUGGGAUUACCUAA,0.00327 ± 0.0033
18,CUUAAGGAGACGAACUACUGCGUUACCUAA,0.000135 ± 0.024
19,CUUAAGGAGACGAACUACUGGGUUACCUUA,0.000118 ± 0.046
20,CUUAAGGAGAGGAUCUGACUGGGUUACCUAA,0.000115 ± 0.041
21,CUUAAGGAGACCUACUACUGGGUUACCGUAA,0.000145 ± 0.091
22,CUUAAGGAGUGGAUCUACUGGGUUAGCUUA,0.000494 ± 0.022
23,CUUAAGGAGACGAUGUACUGCGUUACCUAA,0.000502 ± 0.013
24,CUUAAGGACUGCAUCUACUGCGUUACCUAA,0.00229 ± 0.015

# An excerpt of these results, with bars between the fields.
row | Sequence | pre-steady-state target cleavage rate
2 | CUUAAGGAGACCUUCUACAGGGUUACCAAA | 0.000119 ± 0.037
3 | CUUAAGGAGACGAUCUACUGGGUAUCCUAA | 0.00074 ± 0.0091
6 | CUUAAGGAGACGAUCUACUGGGUAACCUUA | 0.00045 ± 0.017
7 | CUUAAGGUCUGGAUCUAGUGCGUUACCUAA | 0.00201 ± 0.004
8 | CUUAAGGAGACCUACUAGUGGGUUACCUAA | 0.000248 ± 0.029
9 | CUUAAGGAGACCAUCUACUGCGGUUACCUAA | 0.000826 ± 0.0092
10 | CUUAACCUCUGGAUCAUACUGGGUUACCUAA | 0.00307 ± 0.0043
11 | CUUAAGGAGACCAUGAACUGGGUUACCUAA | 0.000117 ± 0.064
12 | CUUAACCUCUGGUUCUACUGGGUUACGUAA | 0.12 ± 0.043
13 | CUUAAGGAGACGAUCUACUGCGUAACCUAA | 0.000626 ± 0.0089
14 | CUUAAGGAGUGGAUCGUACUGGGUUACCUAA | 0.000269 ± 0.025
15 | CUUAUCCUCUGGAUCUACUGGGUUAGGAAA | 0.00108 ± 0.01
16 | CUUAAGGUCUGGAUCUACUGCGUAACCUAA | 0.00226 ± 0.0071
17 | CUUAAGGAGACGAUCUACUGGGAUUACCUAA | 0.00327 ± 0.0033
18 | CUUAAGGAGACGAACUACUGCGUUACCUAA | 0.000135 ± 0.024
19 | CUUAAGGAGACGAACUACUGGGUUACCUUA | 0.000118 ± 0.046
21 | CUUAAGGAGACCUACUACUGGGUUACCGUAA | 0.000145 ± 0.091
22 | CUUAAGGAGUGGAUCUACUGGGUUAGCUUA | 0.000494 ± 0.022
24 | CUUAAGGACUGCAUCUACUGCGUUACCUAA | 0.00229 ± 0.015

# Further results follow:

row,Sequence,pre-steady-state target cleavage rate
1,CUUAAGGAGUGGAUCUACUGCGUUUCCUAA,0.0011 ± 0.0069
2,CUUAUCCUCUGGAUCUACUGGCAAACCUAA,0.00056 ± 0.015
3,CUUAAGGAGACCUUCAACUGGGUUACCUUA,0.000148 ± 0.042
4,CUUAAGGAGACCAACUACAGGGUUACCUAA,0.000783 ± 0.0099
5,CUUAAGGAGACGAUCUAGUGGGUUAGCUAA,0.000448 ± 0.012
6,CUUAUCCUCUGGAUGUACUGCGUUACCUAA,0.0106 ± 0.0045
7,CUUAAGGAGACGAUCAUCUGGGUUACCUAA,0.00126 ± 0.0066
8,CUUAAGGACUGGAUCUUGAGGGUUACCUAA,0.000382 ± 0.014
9,CUUAAGGAGAGGAUCUAUCUGGGUUACCUAA,0.000133 ± 0.029
10,CUUAAGGAGACCUAGUACUUGGUUACCUAA,< 0.0001
11,CUUAAGCUCUGGAUCCACUGGGUUACCUAA,0.0284 ± 0.0092
12,CUUAAGGAGACCAUACUACUGGGUUACCUAA,0.000532 ± 0.02
13,CUUAAGGAGUGGAUCUACAGGGUUAGCUAA,0.000491 ± 0.028
14,CUUAAGGAGACCUAGAACUGGGUCUACCUAA,0.000172 ± 0.034
15,CUUAAGGUCUGGAUCUACUGCCAUACCUAA,0.000497 ± 0.014
16,CUUAAGGAGACCUAGAUCUCGGGUUACCUAA,0.000603 ± 0.014
17,CUUAAGGAGACCUAGAUGACGGUUACCAAA,0.000121 ± 0.018
18,CUUAUCCUCUGGUUCUACUGGGAUACCUAA,0.188 ± 0.078
19,CUUAAGGAGACCUAGAUGAGGGUAACCUUA,0.000462 ± 0.019
20,CUUAUCCUCUGGAUCUACUGGGCUUACCUAA,0.0139 ± 0.005
21,CUUAAGGAGACCUAGAUGUGAGGUUACCUAA,0.000324 ± 0.019
22,CUUAAGGAGACCAUCUACUGGGUUACCUA,0.00163 ± 0.0061
23,CUUAAGGAGACCUAGAUCUGGGUUACCUAAA,0.000372 ± 0.019
24,CUUAAGGAGACCAACAACUGGGUUACCUAA,0.000709 ± 0.01
